These are yes or no findings as the source states them, for the method shown. In cells and extracts the contact can be indirect.
Columns and labels:
[1] = target: HA-tagged ECM1a mutant with VAQ instead of the GPR motif (human) (UniProt Q16610); assay: co-IP; 0.5-1.0 mg whole-cell lysate of A8i cells expressing HA-ECM1a, HA-ECM1b or HA-ECM1a-MT in RIPA lysis buffer, 2 ug antibody or normal IgG, detection by WB
[2] = target: HA-tagged ECM1a mutant with VAQ instead of the GPR motif (human) (UniProt Q16610); assay: co-IP; cell surface biotinylation (EZ-Link Sulfo-NHS-SS-Biotin, NeutrAvidin Agarose), isolated cell surface components precipitated with an HA antibody, WB for integrin αX or β2
[3] = target: HA-tagged ECM1a mutant with VAQ instead of the GPR motif (human) (UniProt Q16610); assay: proximity ligation; Duolink In Situ Red kit on cells cultured on cover slides at 75% confluence; controls with mouse IgG or the control kit

By UniProt entry, the sequences of proteins in these tests, tags left out. Where a name states a change or a piece, a line headed by the entry shows the natural chain unless it says otherwise. Residues count along the entry.
UniProt Q16610: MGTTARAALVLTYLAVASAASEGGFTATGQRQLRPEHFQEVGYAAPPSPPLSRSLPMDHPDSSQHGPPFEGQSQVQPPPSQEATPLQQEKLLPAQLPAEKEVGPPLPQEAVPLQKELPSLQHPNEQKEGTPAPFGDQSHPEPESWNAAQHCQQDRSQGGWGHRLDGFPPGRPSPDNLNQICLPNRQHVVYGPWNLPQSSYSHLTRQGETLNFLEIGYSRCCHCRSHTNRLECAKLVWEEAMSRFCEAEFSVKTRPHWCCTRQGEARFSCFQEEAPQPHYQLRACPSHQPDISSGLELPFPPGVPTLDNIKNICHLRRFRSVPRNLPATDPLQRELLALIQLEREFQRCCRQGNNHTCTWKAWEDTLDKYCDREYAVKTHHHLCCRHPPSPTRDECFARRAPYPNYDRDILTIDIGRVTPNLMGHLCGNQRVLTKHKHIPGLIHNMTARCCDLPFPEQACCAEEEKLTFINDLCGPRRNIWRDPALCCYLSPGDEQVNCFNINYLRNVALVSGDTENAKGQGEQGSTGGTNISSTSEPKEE
UniProt P05107, residues 23-769: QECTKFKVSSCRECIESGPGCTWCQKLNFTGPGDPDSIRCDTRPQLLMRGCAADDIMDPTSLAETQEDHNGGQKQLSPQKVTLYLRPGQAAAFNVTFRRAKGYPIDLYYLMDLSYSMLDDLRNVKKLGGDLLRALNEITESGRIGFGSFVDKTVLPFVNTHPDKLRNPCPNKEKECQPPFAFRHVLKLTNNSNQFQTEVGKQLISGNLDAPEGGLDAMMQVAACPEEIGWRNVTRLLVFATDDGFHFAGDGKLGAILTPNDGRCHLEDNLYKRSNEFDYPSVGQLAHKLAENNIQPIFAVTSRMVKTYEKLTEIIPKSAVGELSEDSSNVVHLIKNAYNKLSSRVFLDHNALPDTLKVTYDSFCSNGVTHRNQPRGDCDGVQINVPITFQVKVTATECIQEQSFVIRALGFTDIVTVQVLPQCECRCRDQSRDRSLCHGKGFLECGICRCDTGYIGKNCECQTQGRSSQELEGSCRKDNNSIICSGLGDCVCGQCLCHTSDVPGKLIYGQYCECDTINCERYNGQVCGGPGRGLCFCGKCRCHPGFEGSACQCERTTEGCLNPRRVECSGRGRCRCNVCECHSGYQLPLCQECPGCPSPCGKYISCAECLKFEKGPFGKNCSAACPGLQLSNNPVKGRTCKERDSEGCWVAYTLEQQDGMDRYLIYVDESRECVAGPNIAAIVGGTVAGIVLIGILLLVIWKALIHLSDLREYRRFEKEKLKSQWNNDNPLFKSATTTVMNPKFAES
UniProt P20702, residues 20-1163: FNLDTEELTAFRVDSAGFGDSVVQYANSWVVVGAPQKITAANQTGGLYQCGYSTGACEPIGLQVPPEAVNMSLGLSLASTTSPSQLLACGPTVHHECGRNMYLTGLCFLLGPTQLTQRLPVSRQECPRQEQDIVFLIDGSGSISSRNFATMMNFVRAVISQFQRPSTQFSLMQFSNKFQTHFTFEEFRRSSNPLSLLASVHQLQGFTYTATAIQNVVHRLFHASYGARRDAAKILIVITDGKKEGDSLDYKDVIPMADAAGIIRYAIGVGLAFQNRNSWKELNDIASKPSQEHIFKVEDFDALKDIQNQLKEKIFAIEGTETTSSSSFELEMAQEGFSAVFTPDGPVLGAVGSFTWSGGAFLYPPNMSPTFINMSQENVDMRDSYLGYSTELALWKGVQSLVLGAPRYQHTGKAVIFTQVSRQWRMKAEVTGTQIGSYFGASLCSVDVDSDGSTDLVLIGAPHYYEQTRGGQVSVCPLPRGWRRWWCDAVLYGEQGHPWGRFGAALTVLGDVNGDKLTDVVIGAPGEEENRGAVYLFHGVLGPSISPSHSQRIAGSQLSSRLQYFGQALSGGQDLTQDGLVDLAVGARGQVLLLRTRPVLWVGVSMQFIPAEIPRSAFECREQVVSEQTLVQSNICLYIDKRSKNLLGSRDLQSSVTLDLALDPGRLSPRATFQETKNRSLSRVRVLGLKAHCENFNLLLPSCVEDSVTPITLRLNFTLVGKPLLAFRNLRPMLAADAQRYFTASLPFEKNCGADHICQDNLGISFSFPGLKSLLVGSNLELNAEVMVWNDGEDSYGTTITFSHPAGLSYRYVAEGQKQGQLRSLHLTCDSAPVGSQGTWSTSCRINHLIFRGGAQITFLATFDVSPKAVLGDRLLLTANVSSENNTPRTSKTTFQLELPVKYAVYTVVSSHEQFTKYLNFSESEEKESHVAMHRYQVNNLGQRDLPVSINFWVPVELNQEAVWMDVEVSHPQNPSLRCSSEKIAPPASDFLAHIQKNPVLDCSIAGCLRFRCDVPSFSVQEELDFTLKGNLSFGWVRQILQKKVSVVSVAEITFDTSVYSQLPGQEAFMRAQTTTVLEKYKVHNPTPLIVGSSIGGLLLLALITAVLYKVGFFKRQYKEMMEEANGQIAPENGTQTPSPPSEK

| binding [1] | binding [2] | binding [3] | Substance |
| --- | --- | --- | --- |
| no binding | no binding | no binding | integrin β2 (from UniProt P05107 23-769) (receptor) |
| no binding | no binding | no binding | integrin αX (from UniProt P20702 20-1163) (receptor) |
